# Some results were stated once for a whole list of compounds, not compound by compound.
# System: Silverleaf Whitefly (Bemisia amentifolii)
# Test: Test on controlling effects against silverleaf whitefly (spray on cucumber seedling)
# Type: in vivo
# Conditions: 200 ppm, hand spray on cucumber seedling, first-second instar nymphs, 7 days after the treatment, 25° C.
row,SMILES,protective value
1,"CCON=C(c1ncc(C(F)(F)F)cc1Cl)n1cncn1 [Compound No. 10, [3-chloro-5-(trifluoromethyl)pyridin-2-yl](1H-1,2,4-triazol-1-yl)methanone O-oxime]",at least 80%
2,CCON=C(c1ncc(C(F)(F)F)cc1Br)n1cncn1 [compound 31],at least 80%
3,FC(F)(F)c1cnc(C(=NOCC2CC2)n2cncn2)c(Cl)c1 [compound 32],at least 80%
4,CCON=C(c1nc(C(F)(F)F)ccc1Cl)n1cncn1 [compound 84],at least 80%
